Entries after “also recorded” stand apart in the source; their conditions may differ.
Tested on: C3A spheroids
Experiment: Visualisation of compound penetration into spheroids by LightSheet microscopy
Type: cell-based
Conditions: 11 day old 750 cell spheroids (around 263 μm diameter), 3 μg per ml for 24 hours

COc1cccc2c1C(=O)c1c(O)c3c(c(O)c1C2=O)C[C@@](O)(C(=O)CO)C[C@@H]3O[C@H]1C[C@H](N)[C@H](O)[C@H](C)O1 [doxorubicin]
Penetration throughout the spheroid: Penetration of doxorubicin throughout the spheroid core was demonstrated; also recorded: fluorescing throughout the spheroid core; also recorded: can penetrate into cells in the core of a spheroid

Reference: article PMC5047049, “Characterization of a functional C3A liver spheroid model” (Toxicology Research, 2016)
